PubChem BioAssay AID1224828 – NIAID, 2016
The deposit covers about 17,000 reagents; below is an unselected part. 762 of all reagents (4.5%) were called active. 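Active calls include both raised and lowered p65 entry, mostly lowered; wells with fewer than 50 cells lack a z-score.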 Raw values vary from plate to plate and are shown uncorrected. Unmarked entries are inactive.

Test: 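Knock-downs that increase or decrease LPS-induced p65 nuclear translocation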 (primary screen)
Cells: mouse RAW264.7 G9 macrophage reporter cells (GFP-p65, Tnf promoter-mCherry)
Reagent: siRNA pool against mouse genes, 100 nM
Time to read-out: 2 days siRNA transfection, then 40 min LPS before fixation
Challenge: LPS (Salmonella minnesota R595) at 10 ng/ml
Read-out: 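Imaged p65 nuclear translocation ratio, normalised to the plate median, converted to robust z-scores and averaged across two replicates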
Reading the numbers: p65 translocation robust z-score: higher = more nuclear NF-kappaB p65 after LPS than the plate median; nuclear/cytoplasmic p65 ratio: higher = more nuclear NF-kappaB p65
Call rule: 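Active if robust z is above 3.3 (negative regulators) or below -1.56, the Tlr4 control median (positive regulators); activity score 50 or more; control wells not called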
Calls: active = hit (p65 shift raised or lowered); inactive = no clear change

Eif3a [SID315466472] showed p65 translocation robust z-score 0.32; nuclear/cytoplasmic p65 ratio, rep 1 = 1.63; nuclear/cytoplasmic p65 ratio, rep 2 = 1.4; low cell count flag enough cells to score.
With knock-down of Erdr1x [SID315477262], the screen gave p65 translocation robust z-score 2.16; nuclear/cytoplasmic p65 ratio, rep 1 = 1.6; nuclear/cytoplasmic p65 ratio, rep 2 = 2.04; low cell count flag enough cells to score.
For Deptor [SID315476115] the deposit lists p65 translocation robust z-score -0.07; nuclear/cytoplasmic p65 ratio, rep 1 = 1.51; nuclear/cytoplasmic p65 ratio, rep 2 = 1.58; low cell count flag enough cells to score.
With knock-down of 8030498B09Rik [SID315475475] the results were nuclear/cytoplasmic p65 ratio, rep 1 = 1.24; nuclear/cytoplasmic p65 ratio, rep 2 = 1.16; low cell count flag fewer than 50 cells per well; well left out of scoring.
Silencing of Fxr2 [SID315470212] came out at: p65 translocation robust z-score -0.2; nuclear/cytoplasmic p65 ratio, rep 1 = 1.42; nuclear/cytoplasmic p65 ratio, rep 2 = 1.33; low cell count flag enough cells to score.
Silencing of Camk2a [SID315465737] came out at: p65 translocation robust z-score -1.07; nuclear/cytoplasmic p65 ratio, rep 1 = 1.47; nuclear/cytoplasmic p65 ratio, rep 2 = 1.29; low cell count flag enough cells to score.
After knock-down of Nin [SID315468176], the screen gave p65 translocation robust z-score 0.61; nuclear/cytoplasmic p65 ratio, rep 1 = 1.92; nuclear/cytoplasmic p65 ratio, rep 2 = 1.53; low cell count flag enough cells to score.
For Col8a2 [SID315481560] the deposit lists nuclear/cytoplasmic p65 ratio, rep 1 = 1.26; nuclear/cytoplasmic p65 ratio, rep 2 = 1.07; low cell count flag fewer than 50 cells per well; well left out of scoring.
Against Gm9734 [SID315475294], the entry reads nuclear/cytoplasmic p65 ratio, rep 1 = 1.27; nuclear/cytoplasmic p65 ratio, rep 2 = 1.32; low cell count flag fewer than 50 cells per well; well left out of scoring.
Against Cox6b1 [SID315476895], the entry reads p65 translocation robust z-score 0.45; nuclear/cytoplasmic p65 ratio, rep 1 = 1.75; nuclear/cytoplasmic p65 ratio, rep 2 = 1.74; low cell count flag enough cells to score.
After knock-down of Marveld2 [SID315478200], the record shows p65 translocation robust z-score -2.44 (active); nuclear/cytoplasmic p65 ratio, rep 1 = 1.38; nuclear/cytoplasmic p65 ratio, rep 2 = 1.26; low cell count flag enough cells to score.
Depletion of Mocs2 [SID315467959] resulted in: p65 translocation robust z-score 0.3; nuclear/cytoplasmic p65 ratio, rep 1 = 1.49; nuclear/cytoplasmic p65 ratio, rep 2 = 1.37; low cell count flag enough cells to score.
Against Creb3l2 [SID315477543] the deposit lists p65 translocation robust z-score -0.31; nuclear/cytoplasmic p65 ratio, rep 1 = 1.38; nuclear/cytoplasmic p65 ratio, rep 2 = 1.49; low cell count flag enough cells to score.
Silencing of Ercc8 [SID315474411] gave: p65 translocation robust z-score 0.17; nuclear/cytoplasmic p65 ratio, rep 1 = 1.47; nuclear/cytoplasmic p65 ratio, rep 2 = 1.42; low cell count flag enough cells to score.
Lmf2 [SID315476515] showed p65 translocation robust z-score 1.29; nuclear/cytoplasmic p65 ratio, rep 1 = 1.87; nuclear/cytoplasmic p65 ratio, rep 2 = 1.81; low cell count flag enough cells to score.
Depletion of Faim2 [SID315474538] gave: p65 translocation robust z-score -1.21; nuclear/cytoplasmic p65 ratio, rep 1 = 1.34; nuclear/cytoplasmic p65 ratio, rep 2 = 1.36; low cell count flag enough cells to score.
For Kank1 [SID315476594] the deposit lists nuclear/cytoplasmic p65 ratio, rep 1 = 1.41; nuclear/cytoplasmic p65 ratio, rep 2 = 1.78; low cell count flag fewer than 50 cells per well; well left out of scoring.
Knock-down of Klk4 [SID315471627] came out at: p65 translocation robust z-score -0.12; nuclear/cytoplasmic p65 ratio, rep 1 = 1.47; nuclear/cytoplasmic p65 ratio, rep 2 = 1.47; low cell count flag enough cells to score.
After knock-down of Rab34 [SID315468887], the record shows p65 translocation robust z-score 0.72; nuclear/cytoplasmic p65 ratio, rep 1 = 1.42; nuclear/cytoplasmic p65 ratio, rep 2 = 1.34; low cell count flag enough cells to score.
Silencing of Cstf2t [SID315475816] came out at: p65 translocation robust z-score -0.08; nuclear/cytoplasmic p65 ratio, rep 1 = 1.61; nuclear/cytoplasmic p65 ratio, rep 2 = 1.72; low cell count flag enough cells to score.
Depletion of Vmn2r-ps105 [SID315481831] came out at: p65 translocation robust z-score -1.94 (active); nuclear/cytoplasmic p65 ratio, rep 1 = 1.27; nuclear/cytoplasmic p65 ratio, rep 2 = 1.26; low cell count flag enough cells to score.
For Serpinb6c [SID315476110] the deposit lists p65 translocation robust z-score -1.4; nuclear/cytoplasmic p65 ratio, rep 1 = 1.21; nuclear/cytoplasmic p65 ratio, rep 2 = 1.1; low cell count flag enough cells to score.
Tbx18 [SID315475289] gave p65 translocation robust z-score 0.24; nuclear/cytoplasmic p65 ratio, rep 1 = 1.55; nuclear/cytoplasmic p65 ratio, rep 2 = 1.56; low cell count flag enough cells to score.
For Btnl10 [SID315477399], the values are p65 translocation robust z-score 1.54; nuclear/cytoplasmic p65 ratio, rep 1 = 1.7; nuclear/cytoplasmic p65 ratio, rep 2 = 1.68; low cell count flag enough cells to score.
Against Atp5mc1 [SID315465558], the values are p65 translocation robust z-score -1.43; nuclear/cytoplasmic p65 ratio, rep 1 = 1.25; nuclear/cytoplasmic p65 ratio, rep 2 = 1.45; low cell count flag enough cells to score.
Depletion of Eqtn [SID315473208] resulted in: p65 translocation robust z-score -1.56; nuclear/cytoplasmic p65 ratio, rep 1 = 1.08; nuclear/cytoplasmic p65 ratio, rep 2 = 1.1; low cell count flag enough cells to score.
Depletion of A930037J23RIK [SID315482023] came out at: p65 translocation robust z-score -1.33; nuclear/cytoplasmic p65 ratio, rep 1 = 1.39; nuclear/cytoplasmic p65 ratio, rep 2 = 1.34; low cell count flag enough cells to score.

Limited to “nuclear/cytoplasmic p65 ratio, rep 2” (2 entries from above):
Mocs2 [SID315467959] = 1.37
Creb3l2 [SID315477543] = 1.49
